Record: PubChem BioAssay AID1508597 (Cure First, 2020)

- Purpose: 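Knock-downs altering ovarian cancer cell survival with or without PARP inhibitor rucaparib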 (primary screen)
- Cells: human ovarian carcinoma lines grown from tumours: OCI-P5x (papillary serous) and OCI-C5x (clear cell)
- Knock-down reagent: siRNA pool against human genes, 1.25 pmol siRNA per well
- Time to read-out: 72 h or 96 h, depending on the cell culture
- Conditions: rucaparib 20 µM (about IC30) or vehicle, present until read-out
- Measured: 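Luminescent ATP-based viability assay read 72 or 96 h after transfection, depending on culture, given as normalised percent viability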
- Reading the numbers: viability, normalised: higher = more viable cells remaining
- Hit rule: 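a well counts as a hit if its normalised viability is under 80 percent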
- Meaning of the calls: active = viability under 80%; inactive = viability 80% or more
Shown is an unselected part of about 2,100 reagents. 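Calls flag viability under 80% in either arm, not effects specific to rucaparib; the reference for percent is not stated.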 Unmarked entries are inactive. Not stated in the record: the 100% reference.

Gene	rucaparib or vehicle	cell line	technical replicate	viability, normalised (%)
PRMT9	Rucaparib	OCI-C5x (clear cell)	1	53.9 (active)
PRMT9	Rucaparib	OCI-C5x (clear cell)	2	46.7 (active)
PRMT9	Rucaparib	OCI-C5x (clear cell)	3	44.2 (active)
PRMT9	Rucaparib	OCI-P5x (serous)	1	32.1 (active)
PRMT9	Rucaparib	OCI-P5x (serous)	2	34 (active)
PRMT9	Rucaparib	OCI-P5x (serous)	3	35.9 (active)
PRMT9	Vehicle	OCI-C5x (clear cell)	1	36.3 (active)
PRMT9	Vehicle	OCI-C5x (clear cell)	2	31.5 (active)
PRMT9	Vehicle	OCI-C5x (clear cell)	3	39.7 (active)
PRMT9	Vehicle	OCI-P5x (serous)	1	48.6 (active)
PRMT9	Vehicle	OCI-P5x (serous)	2	38.2 (active)
PRMT9	Vehicle	OCI-P5x (serous)	3	131
MPP4	Rucaparib	OCI-C5x (clear cell)	1	45.9 (active)
MPP4	Rucaparib	OCI-C5x (clear cell)	2	48.5 (active)
MPP4	Rucaparib	OCI-C5x (clear cell)	3	57.3 (active)
MPP4	Rucaparib	OCI-P5x (serous)	1	83.8
MPP4	Rucaparib	OCI-P5x (serous)	2	75.4 (active)
MPP4	Rucaparib	OCI-P5x (serous)	3	63.3 (active)
MPP4	Vehicle	OCI-C5x (clear cell)	1	61.5 (active)
MPP4	Vehicle	OCI-C5x (clear cell)	2	65.7 (active)
MPP4	Vehicle	OCI-C5x (clear cell)	3	67 (active)
MPP4	Vehicle	OCI-P5x (serous)	1	66.5 (active)
MPP4	Vehicle	OCI-P5x (serous)	2	71.6 (active)
MPP4	Vehicle	OCI-P5x (serous)	3	77 (active)
LPP	Rucaparib	OCI-C5x (clear cell)	1	57 (active)
LPP	Rucaparib	OCI-C5x (clear cell)	2	61.4 (active)
LPP	Rucaparib	OCI-C5x (clear cell)	3	68.3 (active)
LPP	Rucaparib	OCI-P5x (serous)	1	69.4 (active)
LPP	Rucaparib	OCI-P5x (serous)	2	66.3 (active)
LPP	Rucaparib	OCI-P5x (serous)	3	84.5
LPP	Vehicle	OCI-C5x (clear cell)	1	73.2 (active)
LPP	Vehicle	OCI-C5x (clear cell)	2	66.1 (active)
LPP	Vehicle	OCI-C5x (clear cell)	3	57 (active)
LPP	Vehicle	OCI-P5x (serous)	1	92
LPP	Vehicle	OCI-P5x (serous)	2	85
LPP	Vehicle	OCI-P5x (serous)	3	83
ADCK5	Rucaparib	OCI-C5x (clear cell)	1	30.5 (active)
ADCK5	Rucaparib	OCI-C5x (clear cell)	2	56.2 (active)
ADCK5	Rucaparib	OCI-C5x (clear cell)	3	54.4 (active)
ADCK5	Rucaparib	OCI-P5x (serous)	1	84.4
ADCK5	Rucaparib	OCI-P5x (serous)	2	83.8
ADCK5	Rucaparib	OCI-P5x (serous)	3	64.4 (active)
ADCK5	Vehicle	OCI-C5x (clear cell)	1	61.7 (active)
ADCK5	Vehicle	OCI-C5x (clear cell)	2	43.4 (active)
ADCK5	Vehicle	OCI-C5x (clear cell)	3	46.3 (active)
ADCK5	Vehicle	OCI-P5x (serous)	1	78.4 (active)
ADCK5	Vehicle	OCI-P5x (serous)	2	70.3 (active)
ADCK5	Vehicle	OCI-P5x (serous)	3	57.8 (active)
SUPT6H	Rucaparib	OCI-C5x (clear cell)	1	37.1 (active)
SUPT6H	Rucaparib	OCI-C5x (clear cell)	2	27 (active)
SUPT6H	Rucaparib	OCI-C5x (clear cell)	3	24.6 (active)
SUPT6H	Rucaparib	OCI-P5x (serous)	1	25.7 (active)
SUPT6H	Rucaparib	OCI-P5x (serous)	2	26.7 (active)
SUPT6H	Rucaparib	OCI-P5x (serous)	3	27.4 (active)
SUPT6H	Vehicle	OCI-C5x (clear cell)	1	20.5 (active)
SUPT6H	Vehicle	OCI-C5x (clear cell)	2	37 (active)
SUPT6H	Vehicle	OCI-C5x (clear cell)	3	27.1 (active)
SUPT6H	Vehicle	OCI-P5x (serous)	1	28.1 (active)
SUPT6H	Vehicle	OCI-P5x (serous)	2	40.6 (active)
SUPT6H	Vehicle	OCI-P5x (serous)	3	34.3 (active)
